US9085541B2, “Process for producing imine compounds for combating invertebrate pests” (priority 2010, dated 2015)
Some of these results come from one statement about several compounds together.

Tested on: tobacco budworm (Heliothis virescens)
Assay: Tobacco budworm (Heliothis virescens) I: 96-well microtiter plates with insect diet and eggs, egg and larval mortality
Type: in vivo
Settings: at 2500 ppm; sprayed onto insect diet; 5 days incubation; in comparison with untreated controls
Procedure: B.1 Tobacco Budworm (Heliothis virescens) I
For evaluating control of tobacco budworm (Heliothis virescens) the test unit consisted of 96-well-microtiter plates containing an insect diet and 15-25 H. virescens eggs. The compounds were formulated using a solution containing 75% v/v water and 25% v/v DMSO. Different concentrations of formulated compounds were sprayed onto the insect diet at 10 μl, using a custom built micro atomizer, at two replications. After application, microtiter plates are incubated at about 28±1° C. and about 80±5% relative humidity for 5 days. Egg and larval mortality is then visually assessed.

Compound	mortality (egg and larval mortality, visually assessed)
CNC(=S)NN=Cc1ccc(C2=NOC(c3cc(F)c(F)c(F)c3)(C(F)(F)F)C2)cc1Cl (stereo not shown) [Compound 8-6]	at least 75%
Cc1cc(C2=NOC(c3cc(Cl)cc(Cl)c3)(C(F)(F)F)C2)ccc1C=NNC(=O)Nc1cc(Cl)ccn1 (racemic) [Compound 1-66]	at least 75%
O=C(NCC1CC1)NN=Cc1ccc(C2=NOC(c3cc(Cl)cc(Cl)c3)(C(F)(F)F)C2)cc1C(F)(F)F (stereo not shown) [Compound 2-5]	at least 75%
Cc1cc(C2=NOC(c3cc(Cl)cc(Cl)c3)(C(F)(F)F)C2)ccc1C=NNC(=O)NCC=C(Cl)Cl (racemic) [Compound 1-36]	at least 75%
O=C(NCC1CC1)NN=Cc1ccc(C2=NOC(c3cc(Cl)cc(Cl)c3)(C(F)(F)F)C2)cc1Cl (stereo not shown) [Compound 4-3]	at least 75%
N#Cc1cc(C2=NOC(c3cc(Cl)cc(Cl)c3)(C(F)(F)F)C2)ccc1C=NNC(=O)NCC1CCCO1 (stereo not shown) [Compound 5-11]	at least 75%
Fc1cc(C2(C(F)(F)F)CC(c3ccc(C=NNC(=S)NCC(F)(F)F)c(Cl)c3)=NO2)cc(F)c1F (stereo not shown) [Compound 8-8]	at least 75%
CCNC(=S)NN=Cc1ccc(C2=NOC(c3cc(F)c(F)c(F)c3)(C(F)(F)F)C2)cc1C (stereo not shown) [Compound 7-7]	at least 75%
O=C(NCCc1ccccn1)NN=Cc1ccc(C2=NOC(c3cc(Cl)cc(Cl)c3)(C(F)(F)F)C2)cc1Cl (stereo not shown) [Compound 4-10]	at least 75%
Cc1cc(C2=NOC(c3cc(Cl)cc(Cl)c3)(C(F)(F)F)C2)ccc1C=NNC(N)=O (racemic) [Compound 1-49]	at least 75%
C[S+]([O-])CC(C)(C)NC(=O)NN=Cc1ccc(C2=NOC(c3cc(Cl)cc(Cl)c3)(C(F)(F)F)C2)cc1Cl (stereo not shown) [Compound 4-55]	at least 75%
Cc1cc(C2=NOC(c3cc(Cl)cc(Cl)c3)(C(F)(F)F)C2)ccc1C=NNC(=O)NCCS(C)(=O)=O (racemic) [Compound 1-51]	at least 75%
O=C(NN=Cc1ccc(C2=NOC(c3cc(Cl)cc(Cl)c3)(C(F)(F)F)C2)cc1C(F)(F)F)NC1CC1 (stereo not shown) [Compound 2-4]	at least 75%
COc1cc(C2=NOC(c3cc(Cl)cc(Cl)c3)(C(F)(F)F)C2)ccc1C=NNC(=O)NC(C)C(F)(F)F (stereo not shown) [Compound 9-10]	at least 75%
CNC(=S)NN=Cc1ccc(C2=NOC(c3cc(Cl)cc(Cl)c3)(C(F)(F)F)C2)cc1Cl (stereo not shown) [Compound 4-29]	at least 75%
COCCCNC(=O)NN=Cc1ccc(C2=NOC(c3cc(Cl)cc(Cl)c3)(C(F)(F)F)C2)cc1C#N (stereo not shown) [Compound 5-12]	at least 75%
FC(F)(F)c1csc(NN=Cc2ccc(C3=NOC(c4cc(Cl)cc(Cl)c4)(C(F)(F)F)C3)cc2Cl)n1 (stereo not shown) [Compound 4-53]	at least 75%
Cc1cc(C2=NOC(c3cc(Cl)cc(Cl)c3)(C(F)(F)F)C2)ccc1C=NNC(=O)NC1CCS(=O)(=O)C1 (stereo not shown) [Compound 1-2]	at least 75%
Cc1cc(C2=NOC(c3cc(Cl)cc(Cl)c3)(C(F)(F)F)C2)ccc1C=NNC(=O)Nc1cscn1 (racemic) [Compound 1-64]	at least 75%
Cc1c(C=NNC(=O)NC2CC2)ccc(C2=NOC(c3cc(Cl)cc(Cl)c3)(C(F)(F)F)C2)c1C (stereo not shown) [Compound 6-6]	at least 75%
COCC(C)NC(=O)NN=Cc1ccc(C2=NOC(c3cc(Cl)cc(Cl)c3)(C(F)(F)F)C2)cc1Cl (stereo not shown) [Compound 4-34]	at least 75%
CNC(=O)NN=Cc1ccc(C2=NOC(c3cc(F)c(F)c(F)c3)(C(F)(F)F)C2)cc1C (stereo not shown) [Compound 7-5]	at least 75%
NC(=S)NN=Cc1ccc(C2=NOC(c3cc(Cl)cc(Cl)c3)(C(F)(F)F)C2)cc1Cl (stereo not shown) [Compound 4-37]	at least 75%
Cc1cc(C2=NOC(c3cc(Cl)cc(Cl)c3)(C(F)(F)F)C2)ccc1C=NNc1ccccn1 (stereo not shown) [Compound 1-77]	at least 75%
CNC(=O)NN=Cc1ccc(C2=NOC(c3cc(Cl)cc(Cl)c3)(C(F)(F)F)C2)cc1C (stereo not shown) [Compound 1-3]	at least 75%
Cc1cc(C2=NOC(c3cc(F)c(F)c(F)c3)(C(F)(F)F)C2)ccc1C=NNC(=O)NC1CC1 (stereo not shown) [Compound 7-3]	at least 75%
N#Cc1cc(C2=NOC(c3cc(Cl)cc(Cl)c3)(C(F)(F)F)C2)ccc1C=NNC(N)=O (stereo not shown) [Compound 5-6]	at least 75%
CCNC(=O)NN=Cc1ccc(C2=NOC(c3cc(F)c(F)c(F)c3)(C(F)(F)F)C2)cc1Cl (stereo not shown) [Compound 8-4]	at least 75%

Compound	mortality (egg and larval mortality, visually assessed)
CCN(C)C(=O)NN=Cc1ccc(C2=NOC(c3cc(Cl)cc(Cl)c3)(C(F)(F)F)C2)cc1C (racemic) [Compound 1-63]	at least 75%
CCCNC(=O)NN=Cc1ccc(C2=NOC(c3cc(Cl)cc(Cl)c3)(C(F)(F)F)C2)cc1C (stereo not shown) [Compound 1-14]	at least 75%
FC(F)(F)c1cccc(NN=Cc2ccc(C3=NOC(c4cc(Cl)cc(Cl)c4)(C(F)(F)F)C3)cc2Cl)n1 (stereo not shown) [Compound 4-52]	at least 75%
CC(NC(=O)NN=Cc1ccc(C2=NOC(c3cc(Cl)cc(Cl)c3)(C(F)(F)F)C2)cc1Cl)C(F)(F)F (stereo not shown) [Compound 4-38]	at least 75%
CCNC(=O)NN=Cc1ccc(C2=NOC(c3cc(Cl)cc(Cl)c3)(C(F)(F)F)C2)cc1C (stereo not shown) [Compound 1-4]	at least 75%
NC(=O)NN=Cc1ccc(C2=NOC(c3cc(Cl)cc(Cl)c3)(C(F)(F)F)C2)cc1Cl (stereo not shown) [Compound 4-26]	at least 75%
COc1cc(C2=NOC(c3cc(Cl)cc(Cl)c3)(C(F)(F)F)C2)ccc1C=NNC(=O)NC(C)C1CC1 (stereo not shown) [Compound 9-11]	at least 75%
O=C(NCC1CCCO1)NN=Cc1ccc(C2=NOC(c3cc(Cl)cc(Cl)c3)(C(F)(F)F)C2)cc1Cl (stereo not shown) [Compound 4-11]	at least 75%
COc1cc(C2=NOC(c3cc(Cl)cc(Cl)c3)(C(F)(F)F)C2)ccc1C=NNC(=O)NCc1cccnc1 (stereo not shown) [Compound 9-5]	at least 75%
Cc1cc(C2=NOC(c3cc(Cl)cc(Cl)c3)(C(F)(F)F)C2)ccc1C=NNC(=O)NC(C)c1ccccc1 (stereo not shown) [Compound 1-80]	at least 75%
Cc1cc(C2=NOC(c3cc(Cl)cc(Cl)c3)(C(F)(F)F)C2)ccc1C=NNC(=O)NCc1ccccn1 (stereo not shown) [Compound 1-28]	at least 75%
COCCNC(=O)NN=Cc1ccc(C2=NOC(c3cc(Cl)cc(Cl)c3)(C(F)(F)F)C2)cc1C#N (stereo not shown) [Compound 5-13]	at least 75%
O=C(NCc1ccccn1)NN=Cc1ccc(C2=NOC(c3cc(Cl)cc(Cl)c3)(C(F)(F)F)C2)cc1C(F)(F)F (stereo not shown) [Compound 2-17]	at least 75%
CSCC(C)(C)NC(=O)NN=Cc1ccc(C2=NOC(c3cc(Cl)cc(Cl)c3)(C(F)(F)F)C2)cc1C (stereo not shown) [Compound 1-84]	at least 75%
O=C(NCC1CC1)NN=Cc1ccc(C2=NOC(c3cc(F)c(F)c(F)c3)(C(F)(F)F)C2)cc1Cl (stereo not shown) [Compound 8-2]	at least 75%
Cc1cc(C2=NOC(c3cc(Cl)cc(Cl)c3)(C(F)(F)F)C2)ccc1C=NNc1cccc(C(F)(F)F)n1 (stereo not shown) [Compound 1-92]	at least 75%
O=C(NCC=C(Cl)Cl)NN=Cc1ccc(C2=NOC(c3cc(Cl)cc(Cl)c3)(C(F)(F)F)C2)cc1Cl (stereo not shown) [Compound 4-23]	at least 75%
Cc1cc(C2=NOC(c3cc(Cl)cc(Cl)c3)(C(F)(F)F)C2)ccc1C=NNC(=O)NCCCn1ccnc1 (stereo not shown) [Compound 1-18]	at least 75%
CC(NC(=O)NN=Cc1ccc(C2=NOC(c3cc(Cl)cc(Cl)c3)(C(F)(F)F)C2)cc1Cl)C1CC1 (stereo not shown) [Compound 4-39]	at least 75%
CCNC(=O)NN=Cc1ccc(C2=NOC(c3cc(F)c(F)c(F)c3)(C(F)(F)F)C2)cc1C (stereo not shown) [Compound 7-4]	at least 75%
CNC(=O)NN=Cc1ccc(C2=NOC(c3cc(Cl)cc(Cl)c3)(C(F)(F)F)C2)cc1OC (stereo not shown) [Compound 9-3]	at least 75%
CC(C)NC(=O)NN=Cc1ccc(C2=NOC(c3cc(Cl)cc(Cl)c3)(C(F)(F)F)C2)cc1C#N (stereo not shown) [Compound 5-9]	at least 75%
CSCCNC(=O)NN=Cc1ccc(C2=NOC(c3cc(Cl)cc(Cl)c3)(C(F)(F)F)C2)cc1C(F)(F)F (stereo not shown) [Compound 2-10]	at least 75%
CNC(=S)NN=Cc1ccc(C2=NOC(c3cc(Cl)cc(Cl)c3)(C(F)(F)F)C2)c2ccccc12 (racemic) [Compound 10-6]	at least 75%
Cc1csc(NN=Cc2ccc(C3=NOC(c4cc(Cl)cc(Cl)c4)(C(F)(F)F)C3)cc2Cl)n1 (stereo not shown) [Compound 4-30]	at least 75%
Cc1cc(C2=NOC(c3cc(Cl)cc(Cl)c3)(C(F)(F)F)C2)ccc1C=NNc1nc(C)c(C)s1 (stereo not shown) [Compound 1-95]	at least 75%
Cc1cc(C2=NOC(c3cc(Cl)cc(Cl)c3)(C(F)(F)F)C2)ccc1C=NNC(=O)NC1CCCCC1 (stereo not shown) [Compound 1-32]	at least 75%
